Values quoted from earlier work in US20240115555A1, “METHODS OF TREATING CANCER USING B-RAF INHIBITORS AND IMMUNE CHECKPOINT INHIBITORS” (Genentech, Inc., priority 2015, published 2024).
For at least one compound, name, drawing or mass did not settle the structure.

Experiments:
metastatic melanoma = details: standard first-line treatment; cited from earlier work
[1] = tested on: metastatic melanoma with the BRAFV600E mutation; details: cited from earlier work

CN(C)/N=N/c1[nH]cnc1C(N)=O [Dacarbazine]
median overall survival (OS) (metastatic melanoma): 6.4 to 9.1 months | median progression-free survival (PFS) (metastatic melanoma): less than 2 months | response rates (metastatic melanoma): 5%-12% | median OS ([1]; median follow-up of 12.5 months): 9.7 months | response rates ([1]; previously untreated, BRAFV600E mutation): 5%
